# Assay results

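Malaria parasite (P. falciparum) lines kept in red blood cells; parasite DNA is measured by SYBR Green fluorescence after lysis, 72 h after compound addition. Each compound was titrated across a series from about 0.000037 to 29 µM. The number is the fitted AC50, the concentration giving a half-maximal change in signal; a lower value means higher potency, whether the curve shows a decrease or an increase. Calls follow the curve class and fit quality: every row here is inconclusive, covering signal-raising curves and weak, poorly fitted, partial or highest-dose-only inhibition curves.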

Values are in µM. All entries here are filed as inconclusive. Only part of the assay is shown, chiefly results filed as inconclusive. A potency from a partial, single-point or poor curve is only a rough figure.

compound: C=Cc1c(C)/c2[n-]/c1=C\c1[n-]c(c(CC)c1C)/C=c1\[n-]c3c(c1C)C(=O)C(C(=O)[O-])C=3c1[n-]c(c(C)c1CCC(=O)[O-])\C=2.[Cu].[Na+].[Na+] (stereo not drawn)
tested on / at: CP247
Potency (µM): 10
remark: inhibitor, single point

compound: C=Cc1c(C)/c2[n-]/c1=C\c1[n-]c(c(CC)c1C)/C=c1\[n-]c3c(c1C)C(=O)C(C(=O)[O-])C=3c1[n-]c(c(C)c1CCC(=O)[O-])\C=2.[Cu].[Na+].[Na+] (stereo not drawn)
tested on / at: GB4
Potency (µM): 7.569
remark: inhibitor, partial curve

compound: C=Cc1c(C)/c2[n-]/c1=C\c1[n-]c(c(CC)c1C)/C=c1\[n-]c3c(c1C)C(=O)C(C(=O)[O-])C=3c1[n-]c(c(C)c1CCC(=O)[O-])\C=2.[Cu].[Na+].[Na+] (stereo not drawn)
tested on / at: CP192
Potency (µM): 9.528
remark: inhibitor, single point

compound: C=Cc1c(C)/c2[n-]/c1=C\c1[n-]c(c(CC)c1C)/C=c1\[n-]c3c(c1C)C(=O)C(C(=O)[O-])C=3c1[n-]c(c(C)c1CCC(=O)[O-])\C=2.[Cu].[Na+].[Na+] (stereo not drawn)
tested on / at: HB3
Potency (µM): 12.59
remark: inhibitor, single point

compound: C=Cc1c(C)/c2[n-]/c1=C\c1[n-]c(c(CC)c1C)/C=c1\[n-]c3c(c1C)C(=O)C(C(=O)[O-])C=3c1[n-]c(c(C)c1CCC(=O)[O-])\C=2.[Cu].[Na+].[Na+] (stereo not drawn)
tested on / at: 7G8
Potency (µM): 11.22
remark: inhibitor, single point

compound: C=Cc1c(C)/c2[n-]/c1=C\c1[n-]c(c(CC)c1C)/C=c1\[n-]c3c(c1C)C(=O)C(C(=O)[O-])C=3c1[n-]c(c(C)c1CCC(=O)[O-])\C=2.[Cu].[Na+].[Na+] (stereo not drawn)
tested on / at: ATS189
Potency (µM): 10
remark: inhibitor, single point

compound: C=Cc1c(C)/c2[n-]/c1=C\c1[n-]c(c(CC)c1C)/C=c1\[n-]c3c(c1C)C(=O)C(C(=O)[O-])C=3c1[n-]c(c(C)c1CCC(=O)[O-])\C=2.[Cu].[Na+].[Na+] (stereo not drawn)
tested on / at: CP238
Potency (µM): 10
remark: inhibitor, single point

compound: CCCCC(CC)COC(=O)C(C#N)=C(c1ccccc1)c1ccccc1 (stereo not drawn)
tested on / at: CP291
Potency (µM): 9.528
remark: inhibitor, partial curve

compound: CCCCC(CC)COC(=O)C(C#N)=C(c1ccccc1)c1ccccc1 (stereo not drawn)
tested on / at: P93_24
Potency (µM): 7.943
remark: inhibitor, partial curve

compound: CCCCC(CC)COC(=O)C(C#N)=C(c1ccccc1)c1ccccc1 (stereo not drawn)
tested on / at: AA1029
Potency (µM): 10
remark: inhibitor, single point

compound: CCCCC(CC)COC(=O)C(C#N)=C(c1ccccc1)c1ccccc1 (stereo not drawn)
tested on / at: CP286
Potency (µM): 17.78
remark: inhibitor, single point

compound: CCCCC(CC)COC(=O)C(C#N)=C(c1ccccc1)c1ccccc1 (stereo not drawn)
tested on / at: CP237
Potency (µM): 17.78
remark: inhibitor, single point

compound: CCCCC(CC)COC(=O)C(C#N)=C(c1ccccc1)c1ccccc1 (stereo not drawn)
tested on / at: CP215
Potency (µM): 13.46
remark: inhibitor, partial curve, poor fit

compound: CCCCC(CC)COC(=O)C(C#N)=C(c1ccccc1)c1ccccc1 (stereo not drawn)
tested on / at: ATS95
Potency (µM): 11.22
remark: inhibitor, single point

compound: CCCCC(CC)COC(=O)C(C#N)=C(c1ccccc1)c1ccccc1 (stereo not drawn)
tested on / at: DFO2036
Potency (µM): 8.912
remark: inhibitor, single point

compound: CCCCC(CC)COC(=O)C(C#N)=C(c1ccccc1)c1ccccc1 (stereo not drawn)
tested on / at: CP250
Potency (µM): 6.31
remark: inhibitor, partial curve

compound: CCCCC(CC)COC(=O)C(C#N)=C(c1ccccc1)c1ccccc1 (stereo not drawn)
tested on / at: 3D7
Potency (µM): 11.22
remark: inhibitor, single point

compound: CCCCC(CC)COC(=O)C(C#N)=C(c1ccccc1)c1ccccc1 (stereo not drawn)
tested on / at: CP185
Potency (µM): 12.59
remark: inhibitor, single point

compound: CCCCC(CC)COC(=O)C(C#N)=C(c1ccccc1)c1ccccc1 (stereo not drawn)
tested on / at: TAB109
Potency (µM): 10
remark: inhibitor, single point

compound: CCCCC(CC)COC(=O)C(C#N)=C(c1ccccc1)c1ccccc1 (stereo not drawn)
tested on / at: CP191
Potency (µM): 8.912
remark: inhibitor, single point

compound: CCCCC(CC)COC(=O)C(C#N)=C(c1ccccc1)c1ccccc1 (stereo not drawn)
tested on / at: CP194
Potency (µM): 6.746
remark: inhibitor, partial curve

compound: CCCCC(CC)COC(=O)C(C#N)=C(c1ccccc1)c1ccccc1 (stereo not drawn)
tested on / at: AS120
Potency (µM): 10
remark: inhibitor, single point

compound: CCCCC(CC)COC(=O)C(C#N)=C(c1ccccc1)c1ccccc1 (stereo not drawn)
tested on / at: ICS
Potency (µM): 17.78
remark: inhibitor, single point

Some entries from above, unchanged:

compound	tested on / at	Potency (µM)	remark
C=Cc1c(C)/c2[n-]/c1=C\c1[n-]c(c(CC)c1C)/C=c1\[n-]c3c(c1C)C(=O)C(C(=O)[O-])C=3c1[n-]c(c(C)c1CCC(=O)[O-])\C=2.[Cu].[Na+].[Na+] (stereo not drawn)	CP247	10	inhibitor, single point
C=Cc1c(C)/c2[n-]/c1=C\c1[n-]c(c(CC)c1C)/C=c1\[n-]c3c(c1C)C(=O)C(C(=O)[O-])C=3c1[n-]c(c(C)c1CCC(=O)[O-])\C=2.[Cu].[Na+].[Na+] (stereo not drawn)	ATS189	10	inhibitor, single point
CCCCC(CC)COC(=O)C(C#N)=C(c1ccccc1)c1ccccc1 (stereo not drawn)	CP237	17.78	inhibitor, single point

The results are deposited in PubChem (AID504749; NCATS, 2011).